US5321030A, “Creatine analogs having antiviral activity” (priority 1991, dated 1994)
For at least one compound, name, drawing or mass did not settle the structure.

Chains of the proteins cited; added tags and fusions are not shown. Lines headed by an entry give the natural chain unless they say otherwise; changes in a name come on top.
UniProt P00563: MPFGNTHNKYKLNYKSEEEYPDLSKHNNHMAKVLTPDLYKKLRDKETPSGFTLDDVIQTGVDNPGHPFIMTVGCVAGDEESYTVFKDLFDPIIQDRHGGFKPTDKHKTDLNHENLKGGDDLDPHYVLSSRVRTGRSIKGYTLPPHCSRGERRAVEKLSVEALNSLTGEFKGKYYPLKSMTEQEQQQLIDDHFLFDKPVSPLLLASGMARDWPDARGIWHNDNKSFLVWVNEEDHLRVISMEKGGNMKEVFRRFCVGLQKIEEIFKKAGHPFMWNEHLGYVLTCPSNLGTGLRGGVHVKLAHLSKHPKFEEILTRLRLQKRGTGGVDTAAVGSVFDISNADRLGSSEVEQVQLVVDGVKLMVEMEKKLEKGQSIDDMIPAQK

Experiments:
creatine kinase = creatine kinase (Oryctolagus cuniculus, UniProt P00563); settings: cited from earlier work
HSV-1 = assay: Cytopathic effect (CPE) assay, HSV-1; settings: Vero cells

| SMILES | inactivation of creatine kinase (creatine kinase; affinity reagent) | turnovers per inactivating event (creatine kinase; saturating concentration (335 mM at 0° C.)) | effect on percent monolayer cell death, second set of experiments (HSV-1; 0-200 PFU, series of concentrations) | protective effect (HSV-1; 125 PFUs, no agar overlay, highest concentrations tested) | substrate activity relative to creatine (creatine kinase; forward reaction) |
| --- | --- | --- | --- | --- | --- |
| N=C(N)N(CC(=O)O)CC1CO1 (centres unmarked) [epoxycreatine] | completely and irreversibly inactivate creatine kinase | approximately 15 |  |  |  |
| N=C1NCCN1CCC(=O)O [homocyclocreatine, 1-carboxyethyl-2-iminoimidazolidine, reference compound] |  |  | some weak activity | weak protective effect in some wells | approximately 1×10^-4 |
